According to US10563263B2, “Genetic polymorphisms associated with statin response and cardiovascular diseases, methods of detection and uses thereof” (CELERA CORPORATION, priority 2010, dated 2020):
Further values from the same series stand in other lists.

Tested on: revascularization, unstable angina requiring hospitalization, MI, all causes of death, or stroke
Test: PROVE IT-TIMI 22: SNP by treatment interaction (high-dose atorvastatin vs standard-dose pravastatin), logistic regression (synergy index), primary composite endpoint
Type: in vivo, human

SMILES: CC(C)c1c(C(=O)Nc2ccccc2)c(-c2ccccc2)c(-c2ccc(F)cc2)n1CC[C@@H](O)C[C@@H](O)CC(=O)O [Atorvastatin, atorvastatin]
- OR (rs7762993 allele A model DOM Imputed, ATORVA vs PRAVA): 1.079
- OR (rs7771264 allele T model DOM Imputed, ATORVA vs PRAVA): 1.051
- OR (rs7795792 allele T model REC Imputed, ATORVA vs PRAVA): 0.659
- OR (rs7806481 allele G model REC Imputed, ATORVA vs PRAVA): 1.465
- OR (rs7814819 allele G model ADD Imputed, ATORVA vs PRAVA): 2.296
- OR (rs7814819 allele G model DOM Imputed, ATORVA vs PRAVA): 2.549
- OR (rs7815952 allele T model DOM Imputed, ATORVA vs PRAVA): 1.182
- OR (rs7834090 allele T model DOM Imputed, ATORVA vs PRAVA): 1.182
- OR (rs7859250 allele C model DOM Imputed, ATORVA vs PRAVA): 1.184
- OR (rs7863577 allele A model ADD Genotyped, ATORVA vs PRAVA): 1.029
- OR (rs7863577 allele A model DOM Genotyped, ATORVA vs PRAVA): 0.9475
- OR (rs7902140 allele C, ADD model, Imputed, atorvastatin vs pravastatin): 0.9423
- OR (rs7921834 allele C, DOM model, Imputed, atorvastatin vs pravastatin): 1.347
- OR (rs7939893 allele C, ADD model, Imputed, atorvastatin vs pravastatin): 0.6916
- OR (rs7939893 allele C, DOM model, Imputed, atorvastatin vs pravastatin): 0.506
- OR (rs7955901 allele C, ADD model, Imputed, atorvastatin vs pravastatin): 0.7285
- OR (rs7955901 allele C, DOM model, Imputed, atorvastatin vs pravastatin): 0.7139
- OR (rs7956274 allele T, ADD model, Imputed, atorvastatin vs pravastatin): 0.7156
- OR (rs7956274 allele T, DOM model, Imputed, atorvastatin vs pravastatin): 0.7031
- OR (rs7957932 allele G, ADD model, Imputed, atorvastatin vs pravastatin): 0.7234
- OR (rs7957932 allele G, DOM model, Imputed, atorvastatin vs pravastatin): 0.6888
- OR (rs7984294 allele A, DOM model, Imputed, atorvastatin vs pravastatin): 2.115
- OR (rs7994286 allele A, ADD model, Imputed, atorvastatin vs pravastatin): 1.764
- OR (rs7994286 allele A, DOM model, Imputed, atorvastatin vs pravastatin): 1.796
- OR (rs8038229 allele A, ADD model, Genotyped, atorvastatin vs pravastatin): 0.6909
- OR (rs8038229 allele A, DOM model, Genotyped, atorvastatin vs pravastatin): 0.666
- OR (rs8043336 allele C, REC model, Imputed, atorvastatin vs pravastatin): 0.9456
- OR (rs8054431 allele T, DOM model, Imputed, atorvastatin vs pravastatin): 1.148
- OR (rs8066502 allele T, DOM model, Imputed, atorvastatin vs pravastatin): 0.5122
- OR (rs8068714 allele T, DOM model, Imputed, atorvastatin vs pravastatin): 0.5127
- OR (rs9301653 allele T, ADD model, Imputed, atorvastatin vs pravastatin): 1.725
- OR (rs9301653 allele T, DOM model, Imputed, atorvastatin vs pravastatin): 1.754
- OR (rs9309988 allele G, DOM model, Imputed, atorvastatin vs pravastatin): 0.8286
- OR (rs9309989 allele C, DOM model, Genotyped, atorvastatin vs pravastatin): 0.771
- OR (rs9310221 allele A, DOM model, Imputed, atorvastatin vs pravastatin): 0.8966
- OR (rs9327555 allele T, DOM model, Imputed, atorvastatin vs pravastatin): 0.5934
- OR (rs9454967 allele G, ADD model, Imputed, atorvastatin vs pravastatin): 0.982
- OR (rs9454967 allele G, DOM model, Imputed, atorvastatin vs pravastatin): 0.9744
- OR (rs9471295 allele T, DOM model, Imputed, atorvastatin vs pravastatin): 1.784
- OR (rs9477007 allele A, ADD model, Imputed, atorvastatin vs pravastatin): 1.012
- OR (rs9487279 allele T, DOM model, Imputed, atorvastatin vs pravastatin): 1.094
- OR (rs9555973 allele G, ADD model, Imputed, atorvastatin vs pravastatin): 1.732
- OR (rs9555973 allele G, DOM model, Imputed, atorvastatin vs pravastatin): 1.761
- OR (rs9557510 allele G, ADD model, Imputed, atorvastatin vs pravastatin): 1.342
- OR (rs9557510 allele G, DOM model, Imputed, atorvastatin vs pravastatin): 1.316
- OR (rs9560584 allele T, DOM model, Imputed, atorvastatin vs pravastatin): 1.792
- OR (rs9588770 allele T, DOM model, Imputed, atorvastatin vs pravastatin): 1.714
- OR (rs9588848 allele C, ADD model, Imputed, atorvastatin vs pravastatin): 1.725
- OR (rs9588848 allele C, DOM model, Imputed, atorvastatin vs pravastatin): 1.754
- OR (rs9812206 allele G, ADD model, Imputed, atorvastatin vs pravastatin): 1.042
- OR (rs9812206 allele G, DOM model, Imputed, atorvastatin vs pravastatin): 1.042
- OR (rs9813552 allele G, ADD model, Imputed, atorvastatin vs pravastatin): 1.042
- OR (rs9813552 allele G, DOM model, Imputed, atorvastatin vs pravastatin): 1.077
- OR (rs9815037 allele T, ADD model, Imputed, atorvastatin vs pravastatin): 1.048
- OR (rs9815037 allele T, DOM model, Imputed, atorvastatin vs pravastatin): 1.083
- OR (rs9825349 allele A, ADD model, Imputed, atorvastatin vs pravastatin): 1.048
- OR (rs9825349 allele A, DOM model, Imputed, atorvastatin vs pravastatin): 1.083
- OR (rs9834217 allele T, ADD model, Imputed, atorvastatin vs pravastatin): 1.017
- OR (rs9834217 allele T, DOM model, Imputed, atorvastatin vs pravastatin): 1.049
- OR (rs9840460 allele T, ADD model, Imputed, atorvastatin vs pravastatin): 1.017
- OR (rs9840460 allele T, DOM model, Imputed, atorvastatin vs pravastatin): 1.049
- OR (rs9840756 allele A, ADD model, Imputed, atorvastatin vs pravastatin): 0.9995
- OR (rs9840756 allele A, DOM model, Imputed, atorvastatin vs pravastatin): 1.031
- OR (rs9844801 allele C, DOM model, Imputed, atorvastatin vs pravastatin): 0.8286
- OR (rs9869187 allele C, ADD model, Imputed, atorvastatin vs pravastatin): 1.037
- OR (rs9869187 allele C, DOM model, Imputed, atorvastatin vs pravastatin): 1.037
- OR (rs9872327 allele T, DOM model, Imputed, atorvastatin vs pravastatin): 0.8286
- OR (rs9881685 allele A, ADD model, Imputed, atorvastatin vs pravastatin): 1.041
- OR (rs9881685 allele A, DOM model, Imputed, atorvastatin vs pravastatin): 1.041
- OR (rs9909499 allele C, DOM model, Imputed, atorvastatin vs pravastatin): 1.716
- OR (rs9911847 allele G, DOM model, Imputed, atorvastatin vs pravastatin): 0.5127
- OR (rs9958823 allele A, ADD model, Imputed, atorvastatin vs pravastatin): 1.083
- OR (rs9965248 allele T, ADD model, Imputed, atorvastatin vs pravastatin): 1.002
- OR (rs10021016, allele G, REC, Genotyped, atorvastatin vs pravastatin): 2.482
- OR (rs10046799, allele C, ADD, Imputed): 0.7946
- OR (rs10051148, allele C, DOM, Imputed): 0.6399
- OR (rs10051148, allele C, DOM, Imputed, atorvastatin vs pravastatin): 0.6399
- OR (rs10054055, allele T, DOM, Imputed): 0.5872
- OR (rs10054055, allele T, DOM, Imputed, atorvastatin vs pravastatin): 0.5872
- OR (rs10067895, allele A, DOM, Imputed): 0.577
- OR (rs10067895, allele A, DOM, Imputed, atorvastatin vs pravastatin): 0.577
- OR (rs10100725, allele C, DOM, Imputed, atorvastatin vs pravastatin): 1.055
- OR (rs10105871, allele C, DOM, Imputed): 1.492
- OR (rs10116807, allele A, REC, Imputed): 2.869
- OR (rs10121941, allele C, DOM, Imputed): 1.177
- OR (rs10128531, allele T, ADD, Imputed, atorvastatin vs pravastatin): 1.662
- OR (rs10128638, allele G, DOM, Genotyped): 0.6667
- OR (rs10181743, allele G, ADD, Imputed, atorvastatin vs pravastatin): 1.137
- OR (rs10195401, allele C, DOM, Imputed): 1.047
- OR (rs10199127, allele T, DOM, Imputed, atorvastatin vs pravastatin): 1.032
- OR (rs10239416, allele A, DOM, Imputed): 1.361
- OR (rs10430870, allele G, REC, Genotyped, atorvastatin vs pravastatin): 3.43
- OR (rs10468988, allele G, ADD, Imputed): 1.083
- OR (rs10469597, allele A, REC, Imputed, atorvastatin vs pravastatin): 1.249
- OR (rs10478919, allele G, DOM, Imputed): 0.593
- OR (rs10478919, allele G, DOM, Imputed, atorvastatin vs pravastatin): 0.593
- OR (rs10506623, allele C, ADD, Imputed, atorvastatin vs pravastatin): 0.7806
- OR (rs10506623, allele C, DOM, Imputed): 0.7185
- OR (rs10506623, allele C, DOM, Imputed, atorvastatin vs pravastatin): 0.7185
- OR (rs10506626, allele A, ADD, Imputed, atorvastatin vs pravastatin): 0.7544
- OR (rs10506626, allele A, DOM, Imputed): 0.6807
- OR (rs10506626, allele A, DOM, Imputed, atorvastatin vs pravastatin): 0.6807
- OR (rs10511071, allele C, DOM, Imputed): 0.8286
- OR (rs10511072, allele G, DOM, Imputed): 0.8286
- OR (rs10511199, allele C, ADD, Imputed): 1.021
- OR (rs10517918, allele G, REC, Imputed, atorvastatin vs pravastatin): 0.972
- OR (rs10517924, allele A, REC, Imputed, atorvastatin vs pravastatin): 1.079
- OR (rs10519362, allele G, DOM, Imputed, atorvastatin vs pravastatin): 1.656
- OR (rs10520072, allele T, DOM, Imputed): 0.5934
- OR (rs10520072, allele T, DOM, Imputed, atorvastatin vs pravastatin): 0.5934
- OR (rs10733846, allele G, ADD, Imputed): 0.8325
- OR (rs10733846, allele G, DOM, Imputed): 0.7557
- OR (rs10737390, allele T, DOM, Imputed): 1.128
- OR (rs10737390, allele T, DOM, Imputed, atorvastatin vs pravastatin): 1.128
- OR (rs10742851, allele T, REC, Imputed, atorvastatin vs pravastatin): 1.673
- OR (rs10743685, allele G, REC, Imputed, atorvastatin vs pravastatin): 1.446
- OR (rs10749293, allele G, DOM, Imputed): 1.442
- OR (rs10749293, allele G, DOM, Imputed, atorvastatin vs pravastatin): 1.442
- OR (rs10749294, allele A, DOM, Imputed, atorvastatin vs pravastatin): 1.341
- OR (rs10752159, allele G, DOM, Imputed): 1.434
- OR (rs10753760, allele T, ADD, Imputed): 0.9252
- OR (rs10753760, allele T, ADD, Imputed, atorvastatin vs pravastatin): 0.9252
- OR (rs10757887, allele C, DOM, Imputed): 1.073
- OR (rs10758326, allele A, ADD, Imputed): 0.6884
- OR (rs10758326, allele A, REC, Imputed): 0.3854
- OR (rs10762236, allele G, ADD, Genotyped): 0.93
- OR (rs10772362, allele T, ADD, Imputed, atorvastatin vs pravastatin): 0.8356
- OR (rs10784891, allele C, ADD, Imputed): 0.7472
